The record followed here is article PMC6802093, “Structural characterization of HypX responsible for CO biosynthesis in the maturation of NiFe-hydrogenase” (Communications Biology, 2019).

The target of this experiment is A. aeolicus HypD (Aquifex aeolicus) (UniProt O67225). Put plainly: SEC; Superdex75 10/300GL, 50 mM Tris-HCl (pH 8.0), 200 mM NaCl, 1 mM DTT; HypC alone, HypD alone, and HypC and HypD mixed in equal molar amount; apparent masses; both purified. A general note: Size exclusion chromatography separates by hydrodynamic size, large species first.

Results are given in words; binding and its absence hold for the method and conditions named.

B1: A. aeolicus HypD (protein, UniProt O67225 1-380)
chain: MRVEEISIFEAYKDKERVLKLSEKIKKLSEKIGRTVNIMEFCGGHTHAIMKYGIDQLLKGVVRFIHGPGCPVCVMPMQRIDLAIELAKRKDVIMCSYGDLLRVPGSKRKSLLNVRAEGADVRMVYSCLDTLKIAKENPDKKVIFFAIGFETTTPQTAVLIKKAKEEGIKNLFVVSNHVITPAAIQHILNAPEIREIGKVEIDAFIGPGHVSVIIGTKPYHYFAEEFQKPVVIAGFEPLNVLKAVYLILKQIYKGRAEVKNNYTRFVTYKGNLKAQNLVAELFELRKEFEWRGLGTIPYSALKIRKEYEEFDAEKVFEVELPEPKEHPACICGKVIRGVARPTDCKLFGTVCTPSNPLGSCMVSSEGACAAYYKYRRALVQ
Consider B1, for which the binding result is “no binding”.
